This is an account of results in PubChem BioAssay AID493014 (National Center for Advancing Translational Sciences (NCATS), 2011).

Some of the results follow. These are further read-outs of the screen, such as a control signal, another cell line or another target. No call is given for them. Most of these compounds were active or inconclusive in the main read-out, so they are no random draw. Words in brackets tell the shape of the fitted curve; partial curves, single points and poor fits give uncertain potencies.

A short description of the test: qHTS Assay to Find Inhibitors of Chronic Active B-Cell Receptor Signaling. The settings on record: ABC-DLBCL IkBa-CBG/CBR reporter, luminescence ratio (green luciferase fused to IkBa over red control in TMD8 lymphoma cells), 4 h. The gist of the method: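 Doxycycline induced both beetle luciferases in TMD8 lymphoma cells; IKK-driven degradation limits the IkappaBalpha-fused green signal, while red luminescence normalises for cell number and nonspecific effects. Compounds tested up to 46 uM, 4 hrs.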
(In general: Quantitative high-throughput screening tests each substance at several concentrations.)

[1] abbreviates: measured here: CBR red luminescence, cell number.
Setting [2] is: measured here: IkBa-CBG green luminescence.

As for `CS(=O)(=O)c1ccc2nc(NC(=O)c3ccc(Cl)nc3)sc2c1`, under setting [1], the half-maximal activity concentration (AC50) was 14.1 µM [falling, single point].
Consider `Cc1cccc(NC(=S)NNC(=O)c2sccc2C)c1`, for which, under setting [1], the AC50 is 20.6 µM [falling, partial curve].
For `CCOC(=O)c1cc2c(=O)n3ccccc3nc2n(Cc2ccco2)c1=NC(=O)c1cccc(OC)c1`, the AC50 under setting [1] was 35.5 µM [falling, single point].
On the same count and under the same terms, under `N#Cc1ccccc1S(=O)(=O)N1CCNS(=O)(=O)c2ccccc21` stands 23.1 µM [rising, partial curve, poor fit]; under `CCN1c2ccccc2-c2nc3ccccc3n2C1c1cccs1` (stereo unspecified), 16.4 µM [falling, single point].
For the compound `COc1cc2ccccc2cc1C(=O)Nc1ccc(Cc2ccncc2)cc1`, under setting [1], the AC50 is 2.59 µM [falling, partial curve].
Still for that read-out and setting: under `c1ccc(Nc2nn[nH]n2)cc1` stands 12.6 µM [rising, partial curve, poor fit]; under `O=[N+]([O-])c1cccnc1SCc1ccccc1`, 10 µM [rising, partial curve, poor fit]; under `CC(C)c1ccc(NC(=O)COc2nnc(-c3cccs3)c(-c3cccs3)n2)cc1`, 6.51 µM [falling, single point].
On to `Cc1cccc(C(=O)NCCc2ccccc2)c1`, for which the half-maximal activity concentration (AC50) under setting [1] was 8.91 µM [falling, partial curve].
On to `CCN(CC)C(=O)c1sc(NC(=O)c2c(OC)cccc2OC)c(C#N)c1C`, for which the AC50 under setting [1] is 14.1 µM [rising, partial curve, poor fit].
Consider `COc1ccc(C2=NN(CC(=O)NCCc3ccc(OC)c(OC)c3)C(=O)CC2)cc1`, for which the concentration at half-maximal activity (AC50) under setting [1] was 2.51 µM [rising, partial curve, poor fit].
Consider `O=c1c(-c2ccco2)[n+]([O-])c2ccccc2n1OCc1c(F)cccc1F`, for which, under setting [1], the AC50 was 20 µM [falling, partial curve, poor fit].
As for `O=c1cc(-c2ccccc2Cl)oc2c([N+](=O)[O-])c(O)cc(O)c12`, the AC50 is, setting by setting: under setting [1], 7.31 µM [falling, partial curve]; under setting [2], 5.8 µM [rising, full curve, poor fit].
In the case of `Cc1ccccc1-c1nnc(SCc2ccccc2)o1`, under setting [1], the AC50 was 0.184 µM [rising, full curve, poor fit].
For the compound `COc1ccc(Br)cc1CN(C)C(C)C(=O)Nc1cccc(C(C)=O)c1` (stereo unspecified), the AC50 under setting [1] is 6.31 µM [rising, partial curve, poor fit].
On the same count and under the same terms, under `COC(CNC(=O)CCc1c(C)nc2c(c(C)nn2-c2ccc(C)cc2)c1C)OC` stands 25.1 µM [rising, single point].
For `COc1ccc(-c2nc3ccc(N4CCCC4)cc3c(=O)[nH]2)cc1OC`, under setting [1], the AC50 was 0.355 µM [falling, full curve, poor fit].
Consider `CCOc1ccc(NC(=O)CSc2nnc(C3CC3)n2C2CC2)cc1`, for which the AC50 under setting [1] is 32.6 µM [rising, partial curve, poor fit].
In the case of `Nc1nccc(/C=C/c2c(Cl)cccc2Cl)n1`, under setting [1], the AC50 was 35.5 µM [falling, single point].
With `COc1ccc(C[C@H]2CN3C(=NC[C@@H]3Cc3ccccc3)N2CCNC(=O)CCC2CCCCC2)cc1`, the half-maximal activity concentration (AC50) under setting [1] is 35.5 µM [falling, single point].
Regarding `Cn1c(=O)[nH]c(=O)c2c1nc([N+](=O)[O-])n2Cc1ccccc1`, the AC50 under setting [1] is 35.5 µM [falling, single point].
On the same count and under the same terms, under `Cc1c(C)c2ccc(OCc3ccc(C(=O)O)o3)c(C)c2oc1=O` stands 3.16 µM [falling, partial curve]; under `CC(=O)Nc1sc(-c2ccc(Cl)cc2)nc1-c1ccccc1`, 1.58 µM [rising, full curve, poor fit]; under `O=C(NCCc1csc(-c2ccccc2)n1)c1c(F)cccc1F`, 1.41 µM [rising, partial curve, poor fit].
With `N=c1ccn(CC(=O)c2ccc(-c3ccccc3)cc2)cc1`, the AC50 under setting [1] is 3.98 µM [falling, full curve].
On the same count and under the same terms, next, `COC(=O)c1c(NC(=O)c2ccc(C)cc2)csc1C`: 12.6 µM [falling, single point].
With `Cc1ccc(-c2nc3sc(CCNC(=O)c4ccc(Br)o4)c(C)n3n2)cc1`, under setting [1], the AC50 was 14.1 µM [falling, single point].
With `Cc1noc(NS(=O)(=O)c2ccc(NC(=O)C34CC5CC(C3)CC(n3cnc(Br)n3)(C5)C4)cc2)c1C`, the AC50 under setting [1] is 2.59 µM [rising, partial curve].
In the case of `COc1ccc(NC(=O)COc2ccc(-c3nn(C)c(=O)c4ccccc34)cc2)cc1`, the AC50 under setting [1] is 1.78 µM [rising, full curve, poor fit].
For the compound `COc1ccc(-c2noc(-c3cc(Cl)ccc3Cl)n2)cc1OC`, the AC50 under setting [1] was 20.6 µM [rising, partial curve, poor fit].
`CC(=O)/C(=N\Nc1ccccc1)Oc1ccc([N+](=O)[O-])cc1`: the AC50 runs as follows: under setting [1], 13 µM [falling, partial curve]; under setting [2], 20.6 µM [rising, single point].
`O=C(O)c1[nH]c2ccccc2c1C=NCc1ccccc1Cl`: the AC50 under setting [1] is 35.5 µM [falling, single point].
Still for that read-out and setting: next, `O=C(Nc1ccccc1N1CCCC1)c1cc(Cl)ccc1Cl`: 35.5 µM [rising, single point]; `Cc1[nH][nH]c(=O)c1C(c1ccc(-c2ccc(Cl)cc2Cl)o1)c1c(C)[nH][nH]c1=O`: 2.31 µM [falling, partial curve, poor fit].
Turning to `CC(CCc1ccccc1)NC(=O)C1CCCN(C(=O)c2cc3sccc3n2C)C1` (stereo unspecified), under setting [1], the AC50 was 3.66 µM [falling, single point].
For `O=C(Nc1ccc(Cl)cc1)N1CCSCC1`, the AC50 under setting [1] is 6.51 µM [falling, single point].
Take `Cc1ccc(S(=O)(=O)Nc2ccc(Cl)cc2C(=O)c2ccc(F)cc2)cc1`: under setting [1], the AC50 was 16.4 µM [falling, single point].
On the same count and under the same terms, next, `O=C(COc1ccc2c(-c3ccccc3)cc(=O)oc2c1)Nc1ccc(CN2CCOCC2)cc1`: 0.355 µM [rising, full curve, poor fit]; `Cc1cc(N2CCCCC2)nc2ccc(NC(=O)c3cccc(Cl)c3)cc12`: 35.5 µM [falling, single point].
Turning to `O=C(Nc1ccc2c(c1)OCCO2)c1cnccn1`, under setting [1], the AC50 is 29.1 µM [falling, single point].
As to `Cc1cccc(C(=O)Nc2nc(C)c(C(=O)Nc3ccc4c(c3)CCC4)s2)c1`, the AC50 under setting [1] is 1.26 µM [falling, full curve].
`CCC(=C(c1ccc(OC)cc1)c1ccc(OC)cc1)c1cn(CC(O)CN(CCO)CCO)c2ccccc12` (stereo unspecified): under setting [1], the AC50 is 11.2 µM [falling, partial curve, poor fit].
Regarding `CC(C)CCSc1cc(NCCO)c([N+](=O)[O-])c2nonc12`, under setting [1], the concentration at half-maximal activity (AC50) is 35.5 µM [falling, single point].
As for `O=C1CCCN1CCCN1CC(C(=O)N(CCO)Cc2ccccc2)CCC1=O` (stereo unspecified), the AC50 under setting [1] was 5.01 µM [falling, single point].
In the case of `C=CCN1C(=O)C(Cc2ccccc2Cl)SC1=Nc1ccc(C(=O)O)cc1` (stereo unspecified), the AC50 under setting [1] was 14.1 µM [falling, single point].
On to `CCOc1ccc(CCNC(=O)C2CC(C)=CCC2C(=O)O)cc1OCC` (stereo unspecified), for which the concentration at half-maximal activity (AC50) under setting [1] is 14.1 µM [rising, single point].
Consider `NC(=O)c1ccc(NC(=O)COC(=O)CC23CC4CC(CC(Br)(C4)C2)C3)cc1`, for which, under setting [1], the AC50 is 29.1 µM [rising, single point].
`c1ccc(-c2ccc(OCCN3CCOCC3)cc2)cc1`: the AC50 under setting [1] was 3.98 µM [rising, full curve, poor fit].
The same measure, in the same setting: next, `CCc1ccc(NC(=O)C(=S)NC2CCCCC2)cc1`: 0.708 µM [rising, full curve]; `CCOC(=O)c1c(NC(=O)C(Sc2ccccc2)c2ccccc2)sc(C(=O)N(C)C)c1C` (stereo unspecified): 20.6 µM [rising, single point].
Regarding `CCN(CC(=O)NCc1ccc(Cl)cc1)C(=O)CSc1ccc(Br)cc1`, the AC50 under setting [1] is 25.1 µM [falling, single point].
Still for that read-out and setting: under `O=C(NCc1ccccc1Cl)c1ccc2nc[nH]c2c1` stands 9.2 µM [falling, partial curve]; under `CCN1C(=O)C2C(C1=O)N1C(c3cccs3)C3C(=O)N(CC)C(=O)C3N1C2c1cccs1` (stereo unspecified), 11.2 µM [falling, partial curve, poor fit]; under `Cc1ccc(-c2cc(N)n(-c3ccc(F)cc3)n2)cc1`, 10 µM [falling, partial curve, poor fit].
Consider `O=C(Nc1ccccc1)C1=C[C@@H](c2ccc(Br)cc2)C[C@@H](OCc2ccc(CO)cc2)O1`, for which the AC50 under setting [1] is 14.1 µM [falling, single point].
`Cc1c(C(=O)NCC2CCCO2)oc2ccccc12` (stereo unspecified): the half-maximal activity concentration (AC50) under setting [1] was 29.1 µM [rising, single point].
As to `Oc1ccc2c(c1)oc1cc(O)ccc12`, the concentration at half-maximal activity (AC50) under setting [1] is 20.6 µM [falling, partial curve, poor fit].
Take `CC(C)CCNC(=O)c1ccc(-c2ccccc2)cc1`: the AC50 under setting [1] was 4.47 µM [rising, full curve, poor fit].
Regarding `O=C(N/N=C/c1cccc([N+](=O)[O-])c1O)c1cccs1`, the AC50 under setting [1] was 2.91 µM [falling, partial curve, poor fit].
Turning to `Cc1c(NC(=O)c2cc(-c3ccccc3)nc3ccccc23)c(=O)n(-c2ccccc2)n1C`, the AC50 under setting [1] was 2.31 µM [rising, full curve, poor fit].
Regarding `NS(=O)(=O)c1ccc(Cl)c(C(=O)Nc2ccccc2[N+](=O)[O-])c1`, the half-maximal activity concentration (AC50) is, setting by setting: under setting [1], 25.1 µM [rising, single point]; under setting [2], 12.6 µM [falling, partial curve, poor fit].
Turning to `Cc1ccc(C)c(OCC(=O)N/N=C/c2ccsc2)c1`, the concentration at half-maximal activity (AC50) under setting [1] is 11.2 µM [rising, partial curve, poor fit].

A word on the AC50: it is the concentration giving half of the maximal activity seen.
